Data source: PubChem BioAssay AID1259308 (NCATS, 2017)

- Aim: 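Knock-downs that increase output of a recombinant reporter protein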 (primary screen)
- Cells: human HEK293 embryonic kidney cells stably expressing firefly luciferase (HEK-CMV-Luc2-Hygro)
- Reagents: single siRNA against human genes, 0.8 pmol siRNA per well
- Duration: 72 h
- Measured: 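Luciferase light (ONE-Glo) measured on one replicate plate set and viability (CellTiter-Glo) on the other, scaled to a negative control siRNA, with robust z-scores and luciferase per cell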
- Reading the numbers: total luciferase, z-score: higher = more reporter protein produced
- Rule for the call: 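An siRNA counts as active if its total luciferase robust z-score exceeds 3; genes with two or more such siRNAs out of three were retested with fresh siRNAs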
- Calls: active = raised luciferase; inactive = no rise
Shown is one part, drawn at random, of about 59,000 reagents tested. About 1,510 of all reagents (2.6%) were called active. 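Calls use total luciferase alone and ignore viability, so some active siRNAs may act by altering cell number.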 Entries without a mark were called inactive. The numbers tell different reagents against one gene apart. Further read-outs or replicates are left out here. No sequences are given here.

For PCSK1 #1, the entry reads total luciferase, z-score -0.0537.
For PCSK1 #2, the entry reads total luciferase, z-score -0.362.
Knock-down of PCSK1 #3 came out at: total luciferase, z-score -0.253.
FTL #1 scored total luciferase, z-score 2.67.
After knock-down of FTL #2, the screen gave total luciferase, z-score -0.0665.
FTL #3 showed total luciferase, z-score -2.12.
With knock-down of MRPL47 #1, the record shows total luciferase, z-score -1.67.
Silencing of MRPL47 #2 came out at: total luciferase, z-score 0.165.
With knock-down of MRPL47 #3, the screen gave total luciferase, z-score -1.15.
ZBTB34 #1 gave total luciferase, z-score -0.284.
After knock-down of ZBTB34 #2, the record shows total luciferase, z-score 0.25.
ZBTB34 #3 scored total luciferase, z-score 1.06.
Knock-down of MCFD2P1 #1 gave: total luciferase, z-score -0.722.
MCFD2P1 #2 showed total luciferase, z-score -1.05.
With knock-down of MCFD2P1 #3, the screen gave total luciferase, z-score -0.13.
Knock-down of ODAPH #1 gave: total luciferase, z-score -0.358.
Silencing of ODAPH #2 came out at: total luciferase, z-score 0.121.
Against ODAPH #3, the values are total luciferase, z-score 1.09.
For LINC00469 #1 the deposit lists total luciferase, z-score 0.151.
After knock-down of LINC00469 #2, the record shows total luciferase, z-score -0.451.
With knock-down of LINC00469 #3 the results were total luciferase, z-score 0.0415.
Knock-down of TTLL3 #1 resulted in: total luciferase, z-score -0.288.
For TTLL3 #2, the values are total luciferase, z-score 0.3.
TTLL3 #3 scored total luciferase, z-score 1.29.
PGAM1 #1 showed total luciferase, z-score -0.578.
For PGAM1 #2 the deposit lists total luciferase, z-score 0.0769.
For PGAM1 #3, the values are total luciferase, z-score -1.3.
PALM #1 gave total luciferase, z-score 3.95 (active).
Depletion of PALM #2 resulted in: total luciferase, z-score 0.481.
Against PALM #3 the deposit lists total luciferase, z-score -1.83.
MYORG #1 showed total luciferase, z-score 1.67.
With knock-down of MYORG #2, the screen gave total luciferase, z-score 2.02.
With knock-down of MYORG #3, the record shows total luciferase, z-score -0.685.
C19orf67 #1 scored total luciferase, z-score 0.0314.
For C19orf67 #2, the values are total luciferase, z-score 2.36.
For C19orf67 #3, the entry reads total luciferase, z-score -0.841.
After knock-down of GOLGA6L10 #1 the results were total luciferase, z-score 2.53.
Against GOLGA6L10 #2 the deposit lists total luciferase, z-score -0.742.
GOLGA6L10 #3 scored total luciferase, z-score 1.53.
For CRIPT #1, the entry reads total luciferase, z-score -0.198.
CRIPT #2 scored total luciferase, z-score -0.306.
Against CRIPT #3 the deposit lists total luciferase, z-score -0.334.
